According to PMC4396695, “Structure of the Ribosomal Oxygenase OGFOD1 Provides Insights into the Regio- and Stereoselectivity of Prolyl Hydroxylases” (Structure(London, England:1993), 2015):
No constants are given. Whether binding was seen depends on the method and setting.

Target: T1, OGFOD1 (human uS12 prolyl 3-hydroxylase) (human), Q8N543
T1 chain: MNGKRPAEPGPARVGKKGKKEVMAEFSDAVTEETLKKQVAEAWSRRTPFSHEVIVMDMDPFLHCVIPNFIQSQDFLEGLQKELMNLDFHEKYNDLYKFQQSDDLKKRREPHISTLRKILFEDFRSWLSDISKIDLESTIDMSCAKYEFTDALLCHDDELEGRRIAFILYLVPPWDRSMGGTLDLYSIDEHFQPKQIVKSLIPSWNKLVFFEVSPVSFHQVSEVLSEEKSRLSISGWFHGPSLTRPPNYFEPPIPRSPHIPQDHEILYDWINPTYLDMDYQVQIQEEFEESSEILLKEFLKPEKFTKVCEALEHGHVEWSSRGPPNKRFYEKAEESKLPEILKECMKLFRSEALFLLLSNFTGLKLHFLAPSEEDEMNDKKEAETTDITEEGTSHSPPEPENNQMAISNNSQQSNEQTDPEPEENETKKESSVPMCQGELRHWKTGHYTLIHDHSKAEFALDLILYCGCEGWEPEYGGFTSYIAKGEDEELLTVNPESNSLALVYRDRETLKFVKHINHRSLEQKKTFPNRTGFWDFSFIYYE
Assay: native gel or EMSA; non-denaturing PAGE of OGFOD1 and of Tpa1p, each run alone; conditions not given; both purified
Details: remark: other sources report otherwise

binding: no binding
B1: OGFOD1 (human uS12 prolyl 3-hydroxylase), Q8N543 1-542 (enzyme)
chain: T1 chain
